Values from PubChem BioAssay AID652259 (Drosophila RNAi Screening Center, 2013)
Purpose: 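Identify new Wingless signalling regulators in fly cells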 (primary screen). Cells: Drosophila clone 8 imaginal disc epithelial cells. Reagent: long dsRNA against Drosophila genes. Treatment: pathway stimulated by co-transfected Wingless expression plasmid. Read-out: 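Dual luciferase reads per well after Wingless plasmid stimulation: reporter firefly light and Renilla control light; activity is firefly divided by Renilla, a ratio not deposited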. Direction: firefly reporter light: higher = more Wg reporter light, before normalisation; Renilla control light: higher = more transfected or surviving cells. Hit rule: 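Strong candidates differ from their plate mean by at least two out of four per-plate statistical tests; weak candidates meet just one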. Calls: active = candidate regulator (raises or lowers reporter); inactive = not a candidate.
The deposit covers about 22,000 reagents; below is a random part of those with a known target gene and a result. In the full data, 233 (1.1%) got an active call. 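Light values are raw, unnormalised plate reads; the ratio scores behind the reporter calls were not deposited.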 A plus sign joins genes that one reagent is predicted to hit. The record does not give: the amount of reagent, the time to read-out, the dose of the treatment.

| target | DRSC id | reporter change call, replicate 1 | firefly reporter light, replicate 1 | firefly reporter light, replicate 2 | Renilla control light, replicate 1 | Renilla control light, replicate 2 | activity call |
| --- | --- | --- | --- | --- | --- | --- | --- |
| CG42367 | DRSC21388 | – | 6.30e5 | 7.41e5 | 3.15e5 | 3.11e5 | inactive |
| DIP1 (DISCO Interacting Protein 1) | DRSC20818 | – | 24902 | 6.08e5 | 10842 | 2.36e5 | inactive |
| bcd + CR14578 | DRSC20984 | – | 15908 | – | 8833 | – | inactive |
| Zip102B (Zinc/iron regulated transporter-related protein 102B) | DRSC17155 | – | 24528 | 7.50e5 | 22877 | 3.40e5 | inactive |
| Hers (Histone gene-specific Epigenetic Repressor in late S phase) | DRSC19429 | – | 3788 | 8100 | 1408 | 3074 | inactive |
| Hers (Histone gene-specific Epigenetic Repressor in late S phase) | DRSC19676 | – | 18388 | – | 13336 | – | inactive |
| CG31360 | DRSC13255 | – | 4339 | – | 2105 | – | inactive |
| CG31797 | DRSC02476 | – | 1960 | 7084 | 650 | 2492 | inactive |
| CG31797 | DRSC02477 | – | 3889 | 9818 | 849 | 3171 | inactive |
| Nmnat (Nicotinamide mononucleotide adenylyltransferase) | DRSC14644 | – | 27563 | – | 16426 | – | inactive |
| PGAP2 (Post-GPI attachment to proteins 2) | DRSC00632 | – | 4296 | – | 2474 | – | inactive |
| PIG-K (Phosphatidylinositol glycan anchor biosynthesis class K) | DRSC18496 | – | 15878 | – | 9627 | – | inactive |
| Dred (Dctn1-related) | DRSC11057 | – | 15421 | – | 6497 | – | inactive |
| Dred (Dctn1-related) | DRSC11059 | – | 4075 | – | 1457 | – | inactive |
| Kebab (Kinetochore and EB1 associated basic protein) | DRSC00827 | – | 15818 | – | 6493 | – | inactive |
| CG3358 | DRSC04992 | – | 17254 | – | 5296 | – | inactive |
| Ufsp1 (UFM1 specific peptidase 1) | DRSC04958 | – | 15925 | – | 8555 | – | inactive |
| CG15696 | DRSC15118 | – | 11913 | – | 2033 | – | inactive |
| CG8191 | DRSC20091 | – | 22138 | – | 10411 | – | inactive |
| Uxs (UDP-xylose synthase) | DRSC10941 | – | 4646 | – | 2032 | – | inactive |
| lncRNA:sphinx + ATPsynF | DRSC17191 | – | 4887 | – | 1959 | – | inactive |
| CG6454 | DRSC16044 | – | 2581 | 8112 | 1027 | 1699 | inactive |
| CG43125 | DRSC13866 | – | 5624 | – | 2395 | – | inactive |
| Snx6 (Sorting nexin 6) | DRSC03081 | – | 21840 | – | 8940 | – | inactive |
| bbc (bb in a boxcar) | DRSC06958 | – | 19638 | – | 6352 | – | inactive |
| bbc (bb in a boxcar) | DRSC22309 | – | 3.77e5 | 4.02e5 | 1.67e5 | 1.65e5 | inactive |
| Mgtor (Megator) | DRSC05958 | – | 9090 | – | 1756 | – | inactive |
| Syx1A (Syntaxin 1A) | DRSC15359 | – | 15965 | – | 14032 | – | inactive |
| Syx1A (Syntaxin 1A) | DRSC21554 | – | 3.89e5 | 3.19e5 | 1.62e5 | 1.32e5 | inactive |
| CG12934 | DRSC06247 | – | 2368 | 4663 | 295 | 1671 | inactive |
| PIP4K (Phosphatidylinositol 5-phosphate 4-kinase) | DRSC17213 | – | 19910 | – | 15723 | – | inactive |
| CG32813 | DRSC17948 | – | 25258 | – | 21690 | – | inactive |
| Pde6 (Phosphodiesterase 6) | DRSC16401 | – | 3781 | – | 1777 | – | inactive |
| Pde6 (Phosphodiesterase 6) | DRSC16402 | – | 15607 | – | 2487 | – | inactive |
| Pde6 (Phosphodiesterase 6) | DRSC16403 | – | 10653 | – | 2343 | – | inactive |
| CG9095 | DRSC20150 | – | 15010 | – | 6818 | – | inactive |
| CG42674 | DRSC10066 | – | 5255 | – | 1559 | – | inactive |
| CG42674 | DRSC10067 | – | 18464 | – | 5153 | – | inactive |
| CG42674 | DRSC10811 | – | 24976 | – | 6214 | – | inactive |
| ogre (optic ganglion reduced) | DRSC18809 | – | 2637 | 8995 | 865 | 2199 | inactive |
| CG5860 | DRSC15896 | – | 13392 | – | 4312 | – | inactive |
| und (uninitiated) | DRSC03629 | – | 8296 | – | 3433 | – | inactive |
| polyph (polyphemus) | DRSC06254 | – | 2592 | 8233 | 810 | 2848 | inactive |
| MFS10 (Major Facilitator Superfamily Transporter 10) | DRSC19888 | – | 2476 | 8551 | 954 | 2224 | inactive |
| Eglp2 (Entomoglyceroporin 2) | DRSC04294 | – | 11929 | – | 3049 | – | inactive |

Continued (6 carried over from the part before).
| target | DRSC id | reporter change call, replicate 1 | firefly reporter light, replicate 1 | firefly reporter light, replicate 2 | Renilla control light, replicate 1 | Renilla control light, replicate 2 | activity call |
| --- | --- | --- | --- | --- | --- | --- | --- |
| ogre (optic ganglion reduced) | DRSC18809 | – | 2637 | 8995 | 865 | 2199 | inactive |
| CG5860 | DRSC15896 | – | 13392 | – | 4312 | – | inactive |
| und (uninitiated) | DRSC03629 | – | 8296 | – | 3433 | – | inactive |
| polyph (polyphemus) | DRSC06254 | – | 2592 | 8233 | 810 | 2848 | inactive |
| MFS10 (Major Facilitator Superfamily Transporter 10) | DRSC19888 | – | 2476 | 8551 | 954 | 2224 | inactive |
| Eglp2 (Entomoglyceroporin 2) | DRSC04294 | – | 11929 | – | 3049 | – | inactive |
| kibra | DRSC14533 | – | 9073 | – | 1761 | – | inactive |
| kibra | DRSC16257 | – | 10497 | – | 509 | – | inactive |
| betaTub85D (beta-Tubulin at 85D) | DRSC16910 | – | 17350 | – | 2957 | – | inactive |
| CG34106 | DRSC01578 | – | 18845 | – | 8920 | – | inactive |
| CG8087 | DRSC16375 | – | 13657 | – | 4203 | – | inactive |
| ERp44 (Endoplasmic reticulum protein 44) | DRSC20215 | – | 1513 | 5153 | 679 | 1869 | inactive |
| nAChRbeta3 (nicotinic Acetylcholine Receptor beta3) | DRSC00325 | – | 11322 | – | 2393 | – | inactive |
| CG42450 | DRSC20022 | – | 14376 | – | 9079 | – | inactive |
| CG42450 | DRSC22751 | – | 4.31e5 | 5.31e5 | 1.89e5 | 2.03e5 | inactive |
| fru (fruitless) | DRSC16951 | Wg reporter activity raised | 18412 | – | 1328 | – | active |
| fru (fruitless) | DRSC16952 | – | 25018 | – | 7404 | – | inactive |
| fru (fruitless) | DRSC16953 | – | 17149 | 7.17e5 | 5079 | 3.66e5 | inactive |
| fru (fruitless) | DRSC21600 | – | 4.33e5 | 4.69e5 | 2.31e5 | 1.79e5 | inactive |
| IKKbeta (I-kappaB kinase beta) | DRSC16714 | – | 1728 | 6173 | 642 | 2089 | inactive |
| CG15408 | DRSC00423 | – | 2181 | 7105 | 1056 | 1964 | inactive |
| SmB (Small ribonucleoprotein particle protein SmB) | DRSC03437 | – | 11482 | – | 1690 | – | inactive |
| CG14877 | DRSC15001 | – | 13958 | – | 2806 | – | inactive |
| Vps33B (Vacuolar protein sorting 33B) | DRSC15722 | – | 3687 | 4050 | 1836 | 753 | inactive |
| Art9 (Arginine methyltransferase 9) | DRSC16584 | – | 20400 | – | 4889 | – | inactive |
| Ag5r2 (Antigen 5-related 2) | DRSC19328 | – | 18419 | – | 7931 | – | inactive |
| spz (spatzle) | DRSC17065 | – | 2954 | 8022 | 1424 | 2028 | inactive |
| CG4610 | DRSC04477 | – | 3468 | 7447 | 694 | 2225 | inactive |
| CG4610 | DRSC22397 | – | 8.58e5 | 9.07e5 | 4.67e5 | 3.47e5 | inactive |
| tea (telomere ends associated) | DRSC06110 | – | 3661 | – | 1252 | – | inactive |
| tea (telomere ends associated) | DRSC06236 | – | 2296 | 7066 | 645 | 2393 | inactive |
| CG31321 | DRSC13028 | – | 3264 | – | 1122 | – | inactive |
| Camp (Cathelicidin-like antimicrobial protein) | DRSC07004 | – | 10556 | – | 3506 | – | inactive |
| CG11912 | DRSC00332 | – | 6915 | – | 3128 | – | inactive |
